Experimental data reported in US10047081B2, “BACE1 inhibitors” (Hoffmann-La Roche Inc., priority 2015, dated 2018).

By UniProt entry, the sequences of proteins in these tests, tags left out. Residues count along the entry.
UniProt P56817, 46-501 limits assumed: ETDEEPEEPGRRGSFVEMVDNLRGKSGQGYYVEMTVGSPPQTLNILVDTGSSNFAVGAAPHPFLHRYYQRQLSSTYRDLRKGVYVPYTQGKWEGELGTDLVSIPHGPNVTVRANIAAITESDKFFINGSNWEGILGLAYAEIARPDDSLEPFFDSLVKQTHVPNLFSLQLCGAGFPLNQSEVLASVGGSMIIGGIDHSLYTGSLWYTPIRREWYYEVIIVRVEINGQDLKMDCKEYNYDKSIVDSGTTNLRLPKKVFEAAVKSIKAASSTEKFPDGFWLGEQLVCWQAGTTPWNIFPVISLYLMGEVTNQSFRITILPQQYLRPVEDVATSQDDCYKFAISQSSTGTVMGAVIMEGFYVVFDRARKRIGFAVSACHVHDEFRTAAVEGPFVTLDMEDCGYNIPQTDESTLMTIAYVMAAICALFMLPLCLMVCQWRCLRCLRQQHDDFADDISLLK

Molecular target: BACE1 (Homo sapiens, UniProt P56817)
Experiment: Cellular Aβ-lowering assay (Abeta 40 AlphaLISA, HEK293 APP cells)
Settings: read-out: BACE1 cell act. Aβ40 IC50, 18-20 hrs incubation, Aβ 40 in culture supernatant, tested form: TFA
Protocol: Cellular Aβ-Lowering Assay:
The Abeta 40 AlphaLISA Assay can be used. The HEK293 APP cells were seeded in 96 well Microtiter plates in cell culture medium (Iscove's, plus 10% (v/v) fetal bovine serum, penicillin/streptomycin) to about 80% confluency and the compounds were added at a 3× concentration in ⅓ volume of culture medium (final DMSO concentration was kept at 1% v/v). After 18-20 hrs incubation at 37° C. and 5% CO2 in a humidified incubator, the culture supernatants were harvested for the determination of Aβ 40 concentrations using Perkin-Elmer Human Amyloid beta 1-40 (high specificity) Kit (Cat#AL275C).
In a Perkin-Elmer White Optiplate-384 (Cat#6007290), 2 ul culture supernatants were combined with 2 μl of a 10× AlphaLISA Anti-hAβAcceptor beads + Biotinylated Antibody Anti-Aβ 1-40 Mix (50 μg/mL/5 nM). After 1 hour room temperature incubation, 16 μl of a 1.25× preparation of Streptavidin (SA) Donor beads (25 μg/mL) were added and incubated for 30 minutes in the Dark. Light Emission at 615 nm was then recorded using EnVision-Alpha Reader. Levels of Aβ 40 in the culture supernatants were calculated as percentage of maximum signal (cells treated with 1% DMSO without inhibitor). The IC50 values were calculated using the Excel XLfit software.

Work on `COc1cnc(-c2cc(-c3ccc(F)c([C@]4(C)C[S@@](=O)(=NC5CC5)C(C)(C)C(N)=N4)c3)on2)cn1` yielded an IC50 of 13 nM.

The match of structure and compound is tentative.
